By Kd is commonly meant the free concentration of one partner at which half of the binding sites on the other are occupied at equilibrium, for simple one-to-one binding.

By UniProt entry, the sequences of proteins in these tests, tags left out. Residues count along the entry.
UniProt P16070, 21-649: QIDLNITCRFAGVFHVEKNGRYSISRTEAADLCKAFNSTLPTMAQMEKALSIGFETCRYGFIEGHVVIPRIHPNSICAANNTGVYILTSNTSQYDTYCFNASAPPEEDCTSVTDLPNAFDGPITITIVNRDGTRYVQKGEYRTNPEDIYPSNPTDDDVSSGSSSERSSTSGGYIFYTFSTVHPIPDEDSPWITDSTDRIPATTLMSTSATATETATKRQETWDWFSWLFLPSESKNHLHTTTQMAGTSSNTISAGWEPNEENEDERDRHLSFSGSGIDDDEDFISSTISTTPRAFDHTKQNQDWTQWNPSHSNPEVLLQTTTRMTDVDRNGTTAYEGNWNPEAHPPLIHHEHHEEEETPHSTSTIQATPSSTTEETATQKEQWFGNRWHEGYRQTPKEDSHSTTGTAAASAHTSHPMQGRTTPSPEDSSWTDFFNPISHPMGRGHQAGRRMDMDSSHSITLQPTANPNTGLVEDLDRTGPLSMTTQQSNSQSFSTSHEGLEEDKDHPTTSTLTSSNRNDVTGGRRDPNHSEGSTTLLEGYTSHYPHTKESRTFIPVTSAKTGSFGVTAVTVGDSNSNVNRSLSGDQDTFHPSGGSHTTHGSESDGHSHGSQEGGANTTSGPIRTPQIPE
UniProt P16070, 20-178: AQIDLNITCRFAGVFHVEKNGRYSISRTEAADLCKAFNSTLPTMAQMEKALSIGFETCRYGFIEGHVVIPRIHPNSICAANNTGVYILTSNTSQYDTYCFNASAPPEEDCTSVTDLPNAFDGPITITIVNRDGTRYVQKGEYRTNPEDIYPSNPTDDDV

The target of data set [1] is CD44 on IGROV ovarian cancer cells (Homo sapiens) (UniProt P16070). Kind of data set: binding assay. The settings on record: X=amino modifier C2 dT [4,15]; fluorescence imaging of IGROV cells, same pattern as anti-CD44 antibody; protein on the cell surface; label: Cy3; single-stranded DNA; letters built from the parent sequence and the stated change; variant of Motif 5 phospho NH2.

Data set [2] concerns the target CD44 hyaluronic acid binding domain (CD44-HABD) (UniProt P16070). Kind of data set: filter binding. To be noted: fully monothioate PS, 20 mM Tris pH 8.0, 150 mM NaCl, RT, purified recombinant protein, protein details: expressed from pET19b, refolded, label: biotin, single-stranded DNA.
In data set [3] the target is CD44 on IGROV ovarian cancer cells (Homo sapiens) (UniProt P16070). Kind of data set: flow cytometry. To be noted: 37 C, 2 h, protein on the cell surface, label: fluorescent dye, single-stranded DNA. (Flow cytometry measures light scatter and fluorescence of single cells or particles in a stream.)
[4] abbreviates: X=amino-dU [n positions 23 = modified dU].

For some of these results: Where cells or extracts were used, other partners may take part. For some of these results: The exact form of at least one protein or probe is not confirmed.

On to “AGATACAGTAAACGTCCATAGACAC [Motif 5, Cy3]”, for which, in data set [1], the binding result is given as “binds”.

For “GAGATTCATCACGCGCATAGTCCCAAGATCTGTAAGGTATCCGGGGACTGCGACTATGCGATGATGTCTTC [ADDA XA8]”, the dissociation constant (Kd) in data set [2] (X=ADDA-dU [n positions 31,33,40,49 = modified dU], variant of NH2 XA8) is 274 nM.

As to “GAGATTCATCACGCGCATAGTCCCAAGATCTGTAAGGTATCCGGGGACTGCGACTATGCGATGATGTCTTC [NH2 XA8]”, the Kd in data set [2] (X=amino-dU [n positions 31,33,40,49 = modified dU]) was 463 nM.

Consider “GAGATTCATCACGCGCATAGTCCCAAGGCCTGCAAGGGAACCAAGTCCATTACGACTATGCGATGATGTCTTC [ADDA XA3]”, for which, in data set [2] (X=ADDA-dU [n positions 50 = modified dU], variant of NH2 XA3), the Kd was 140 nM.

On to “GAGATTCATCACGCGCATAGTCCCAAGGCCTGCAAGGGAACCAAGTCCATTACGACTATGCGATGATGTCTTC [NH2 XA3]”, for which, in data set [2] (X=amino-dU [n positions 50 = modified dU]), the dissociation constant Kd was 111 nM.

Consider “GAGATTCATCACGCGCATAGTCTGCAGATACAGTAAACGTCCATAGACACAGCGACTATGCGATGATGTCTTC [ADDA XA5]”, for which the Kd in data set [2] (X=ADDA-dU [n positions 23,29,40 = modified dU], variant of NH2 XA5) was 125 nM.

Consider “GAGATTCATCACGCGCATAGTCTGCAGATACAGTAAACGTCCATAGACACAGCGACTATGCGATGATGTCTTC [NH2 XA5]”, for which the Kd in data set [2] (X=amino-dU [n positions 23,29,40 = modified dU], same value printed as XA4) turned out to be 137 nM.

With “GAGATTCATCACGCGCATAGTCTGCAGATCTGCAAGGGAAAGATAGACACAGCGACTATGCGATGATGTCTTC [ADDA XA13]”, in data set [2] (X=ADDA-dU [n positions 23 = modified dU], variant of NH2 XA13), the dissociation constant (Kd) came out at 312 nM.

Turning to “GAGATTCATCACGCGCATAGTCTGCAGATCTGCAAGGGAAAGATAGACACAGCGACTATGCGATGATGTCTTC [NH2 XA13]”, in data set [2] (setting [4]), the Kd was 1380 nM.

Take “GAGATTCATCACGCGCATAGTCTGCAGATCTGCAAGGGAACCAAGGACACTACGACTATGCGATGATGTCTTC [ADDA XA2]”: the Kd in data set [2] (X=ADDA-dU [n positions 23 = modified dU], variant of NH2 XA2) was 78.3 nM.

As for “GAGATTCATCACGCGCATAGTCTGCAGATCTGCAAGGGAACCAAGGACACTACGACTATGCGATGATGTCTTC [NH2 XA2]”, in data set [2] (setting [4]), the Kd came to 55.5 nM.

Regarding “GAGATTCATCACGCGCATAGTCTTAAGACGCATTAATGAACCAAGGACGTGACGACTATGCGATGATGTCTTC [ADDA XA7]”, the dissociation constant (Kd) in data set [2] (X=ADDA-dU [n positions 23,24,33,37 = modified dU], variant of NH2 XA7) came to 116 nM.

On to “GAGATTCATCACGCGCATAGTCTTAAGACGCATTAATGAACCAAGGACGTGACGACTATGCGATGATGTCTTC [NH2 XA7]”, for which the Kd in data set [2] (X=amino-dU [n positions 23,24,33,37 = modified dU]) was found to be 306 nM.

On to “GAGATTCATCACGCGCATAGTCTTAAGATCTGCAATGTAACCATAGACACAGCGACTATGCGATGATGTCTTC [ADDA XA9]”, for which the Kd in data set [2] (X=ADDA-dU [n positions 23,24,36 = modified dU], variant of NH2 XA9) is 556 nM.

Regarding “GAGATTCATCACGCGCATAGTCTTAAGATCTGCAATGTAACCATAGACACAGCGACTATGCGATGATGTCTTC [NH2 XA9]”, the Kd in data set [2] (X=amino-dU [n positions 23,24,36 = modified dU]) was 477 nM.

Take “GAGATTCATCACGCGCATAGTCTTAAGATCTGTTAGGGAACCAAGACGACAGCGACTATGCGATGATGTCTTC [ADDA XA1]”: the Kd in data set [2] (X=ADDA-dU [n positions 23,24,31,33 = modified dU], variant of NH2 XA1) was 109 nM.

Take “GAGATTCATCACGCGCATAGTCTTAAGATCTGTTAGGGAACCAAGACGACAGCGACTATGCGATGATGTCTTC [NH2 XA1]”: the dissociation constant Kd in data set [2] (X=5-(aminoethyl-3-acrylimido)-dU (amino-dU) [n positions 23,24,31,33 = modified dU]) came out at 62.9 nM.

Consider “GAGATTCATCACGCGCATAGTCTTAAGGCCTGTTAAATGATATCCACTACGACTATGCGATGATGTCTTC [ADDA XA12]”, for which, in data set [2] (X=ADDA-dU [n positions 23,24,31,33,38 = modified dU], variant of NH2 XA12), the Kd turned out to be 879 nM.

As to “GAGATTCATCACGCGCATAGTCTTAAGGCCTGTTAAATGATATCCACTACGACTATGCGATGATGTCTTC [NH2 XA12]”, the Kd in data set [2] (X=amino-dU [n positions 23,24,31,33,38 = modified dU]) was 963 nM.

“GAGATTCATCACGCGCATAGTCTTGGGACGTAAGTAATGGGGGACATGACGACTATGCGATGATGTCTTC [ADDA XA11]”: the Kd in data set [2] (X=ADDA-dU [n positions 38,47 = modified dU], variant of NH2 XA11) worked out at 1090 nM.

As to “GAGATTCATCACGCGCATAGTCTTGGGACGTAAGTAATGGGGGACATGACGACTATGCGATGATGTCTTC [NH2 XA11]”, the dissociation constant Kd in data set [2] (X=amino-dU [n positions 38,47 = modified dU]) turned out to be 846 nM.

As to “GAGATTCATCACGCGCATAGTCTTGGGGCCCAGTAGGTAACCGGGGACAGCGACTATGCGATGATGTCTTC [NH2 XA10]”, the Kd in data set [2] (no X in sequence) was 450 nM.

As for “GAGATTCATCACGCGCATAGTCTTGGGGCCTGCAAGACGACCTAAACGATGACGACTATGCGATGATGTCTTC [ADDA XA6]”, in data set [2] (X=ADDA-dU [n positions 43,50 = modified dU], variant of NH2 XA6), the dissociation constant (Kd) amounted to 150 nM.

Take “GAGATTCATCACGCGCATAGTCTTGGGGCCTGCAAGACGACCTAAACGATGACGACTATGCGATGATGTCTTC [NH2 XA6]”: in data set [2] (X=amino-dU [n positions 43,50 = modified dU]), the Kd was 214 nM.

Take “GAGATTCATCACGCGCATAGTCTTGGGGCCTGCAAGACGTCCATAGACACAGCGACTATGCGATGATGTCTTC [ADDA XA4]”: the Kd in data set [2] (X=ADDA-dU [n positions 40 = modified dU], variant of NH2 XA4) was found to be 103 nM.

For the sequence “GAGATTCATCACGCGCATAGTCTTGGGGCCTGCAAGACGTCCATAGACACAGCGACTATGCGATGATGTCTTC [NH2 XA4]”, the equilibrium dissociation constant (Kd) in data set [2] (X=amino-dU [n positions 40 = modified dU]) was 137 nM.

Consider “GCCTGCAAGACGTCCATAGACAC [Motif 3 ADDA adduct, fluorescent]”, for which the binding result in data set [3] (X=ADDA-dU [n positions 13 = modified dU], improved over amino form, variant of Motif 3 amino form, fluorescent) is given as “binds”.

For the sequence “GCCTGCAAGACGTCCATAGACAC [Motif 3 amino form, fluorescent]”, the binding result in data set [3] (X=amino modifier C2 dT [13], letters built from the parent sequence and the stated change, variant of Motif 3 phospho NH2) is listed as “binds”.
